These are yes or no findings as the source states them, for the method shown. In cells and extracts the contact can be indirect. Some results given as binding are weak or reduced against the parent protein; the word gives no strength.
Assays:
[1] = target: human MrGPRX1-NP (Mas-related G-protein coupled receptor X1 with the C-terminal NanoBiT natural peptide fragment) (human) (UniProt Q96LB2); experiment: FRET or BRET; NanoBiT-BRET (nbBRET) in live HEK293 cells: MrGPRX1-NP with the early endosome marker FYVE-LgBiT forms the donor, effector with Venus/YFP is the acceptor; change after BAM8-22 (1 μM), furimazine 10 μM, HBSS with 10 mM HEPES pH 7.4
[2] = target: human MrGPRX1-NP (Mas-related G-protein coupled receptor X1 with the C-terminal NanoBiT natural peptide fragment) (human) (UniProt Q96LB2); experiment: FRET or BRET; NanoBiT-BRET (nbBRET) in live HEK293 cells: MrGPRX1-NP with the plasma membrane marker CAAX-LgBiT forms the donor, effector with Venus/YFP is the acceptor; change after BAM8-22 (1 μM), furimazine 10 μM, HBSS with 10 mM HEPES pH 7.4

Chains of the proteins cited; added tags and fusions are not shown.
UniProt Q96LB2: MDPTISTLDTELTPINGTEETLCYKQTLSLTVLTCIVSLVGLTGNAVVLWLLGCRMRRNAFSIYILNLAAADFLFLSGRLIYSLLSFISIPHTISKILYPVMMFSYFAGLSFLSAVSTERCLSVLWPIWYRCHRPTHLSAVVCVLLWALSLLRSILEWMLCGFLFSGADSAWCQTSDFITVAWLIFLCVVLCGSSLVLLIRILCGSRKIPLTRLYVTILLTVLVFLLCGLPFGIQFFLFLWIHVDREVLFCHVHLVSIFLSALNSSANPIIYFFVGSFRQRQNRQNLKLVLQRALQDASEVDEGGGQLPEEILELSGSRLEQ
UniProt P49407: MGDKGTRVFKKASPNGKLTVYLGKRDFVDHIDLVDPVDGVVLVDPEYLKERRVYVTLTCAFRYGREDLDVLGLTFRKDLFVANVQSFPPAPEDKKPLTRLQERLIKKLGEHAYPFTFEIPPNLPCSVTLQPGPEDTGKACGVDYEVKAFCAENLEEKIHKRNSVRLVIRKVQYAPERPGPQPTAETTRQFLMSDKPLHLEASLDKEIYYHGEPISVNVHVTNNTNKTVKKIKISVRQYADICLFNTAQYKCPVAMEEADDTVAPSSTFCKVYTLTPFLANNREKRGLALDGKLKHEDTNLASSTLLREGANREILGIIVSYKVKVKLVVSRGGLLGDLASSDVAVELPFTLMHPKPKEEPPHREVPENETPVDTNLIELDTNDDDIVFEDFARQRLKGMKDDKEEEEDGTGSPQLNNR
UniProt P32121: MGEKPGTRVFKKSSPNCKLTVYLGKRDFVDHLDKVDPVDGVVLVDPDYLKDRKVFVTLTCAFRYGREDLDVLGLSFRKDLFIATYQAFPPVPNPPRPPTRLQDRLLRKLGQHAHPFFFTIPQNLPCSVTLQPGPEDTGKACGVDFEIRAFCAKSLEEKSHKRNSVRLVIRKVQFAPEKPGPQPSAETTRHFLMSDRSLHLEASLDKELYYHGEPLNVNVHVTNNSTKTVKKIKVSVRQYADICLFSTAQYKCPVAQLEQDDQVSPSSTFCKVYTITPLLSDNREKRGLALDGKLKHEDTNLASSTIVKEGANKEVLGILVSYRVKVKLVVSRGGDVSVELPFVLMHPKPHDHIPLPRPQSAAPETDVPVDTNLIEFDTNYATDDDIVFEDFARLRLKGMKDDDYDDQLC

| Substance | binding [1] | binding [2] |
| --- | --- | --- |
| β-arrestin 1-Venus (from UniProt P49407 1-418) | binds | binds |
| β-arrestin 2-Venus (from UniProt P32121 1-409) | no binding | no binding |

— publication PMC13368649
